Some results were stated once for a whole list of compounds, not compound by compound.
Biological target: T1, Human Ca2+ receptor (Homo sapiens, UniProt P41180)
T1 construct: expressed in transfected cells
T1 sequence (P41180 20-1078): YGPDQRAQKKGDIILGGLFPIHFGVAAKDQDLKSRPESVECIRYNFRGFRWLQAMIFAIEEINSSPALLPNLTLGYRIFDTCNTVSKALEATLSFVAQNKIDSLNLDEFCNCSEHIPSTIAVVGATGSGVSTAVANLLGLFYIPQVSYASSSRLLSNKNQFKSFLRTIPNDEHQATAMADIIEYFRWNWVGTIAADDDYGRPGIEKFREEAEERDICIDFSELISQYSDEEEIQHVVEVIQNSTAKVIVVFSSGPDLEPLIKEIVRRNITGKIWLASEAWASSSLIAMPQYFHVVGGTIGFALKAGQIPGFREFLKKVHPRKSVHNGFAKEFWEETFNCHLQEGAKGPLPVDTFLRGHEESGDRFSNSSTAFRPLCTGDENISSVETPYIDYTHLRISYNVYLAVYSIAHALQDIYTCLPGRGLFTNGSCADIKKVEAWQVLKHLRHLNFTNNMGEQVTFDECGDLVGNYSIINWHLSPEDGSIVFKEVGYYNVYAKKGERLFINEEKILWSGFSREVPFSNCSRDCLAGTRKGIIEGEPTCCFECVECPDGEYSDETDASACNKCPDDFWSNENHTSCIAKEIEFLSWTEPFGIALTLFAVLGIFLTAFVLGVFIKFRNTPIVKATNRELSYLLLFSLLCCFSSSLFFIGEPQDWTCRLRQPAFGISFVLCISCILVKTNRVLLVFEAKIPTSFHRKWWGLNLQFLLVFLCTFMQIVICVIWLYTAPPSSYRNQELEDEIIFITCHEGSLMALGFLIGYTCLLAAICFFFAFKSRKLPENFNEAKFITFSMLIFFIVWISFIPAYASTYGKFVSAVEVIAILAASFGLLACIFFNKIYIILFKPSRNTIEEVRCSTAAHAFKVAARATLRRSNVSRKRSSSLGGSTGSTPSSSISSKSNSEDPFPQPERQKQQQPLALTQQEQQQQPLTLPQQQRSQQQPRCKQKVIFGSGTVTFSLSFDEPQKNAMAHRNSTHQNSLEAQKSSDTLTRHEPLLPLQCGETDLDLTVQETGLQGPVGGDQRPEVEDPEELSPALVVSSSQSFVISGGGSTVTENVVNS
Test: Luciferase reporter assay in CHO cells (ET8-5-5) transfected with human Ca2+ receptor
Assay type: cell-based
Details: CHO ET8-5-5 cells

Row | Compound | EC50 [µM]
1 | C[C@H]1CN(C(=O)CCN(CCC(c2ccccc2)c2ccccc2)C(=O)Nc2nc3ccccc3s2)CCN1 [Example 115, (S)-3-(benzo[d]thiazol-2-yl)-1-(3,3-diphenylpropyl)-1-(3-(3-methylpiperazin-1-yl)-3-oxopropyl)urea] | ≤ 10
2 | COC(=O)c1cccc(NC(=O)NCCC(c2ccc(OC)cc2)c2ccc(OC)cc2)c1 [Example 6, 3-{3-[3,3-bis-(4-methoxy-phenyl)-propyl]-ureido}-benzoic acid methyl ester] | ≤ 10
3 | CSCCCN(CCC(c1ccccc1)c1ccccc1)C(=O)Nc1nc(-c2ccc(NS(C)(=O)=O)cc2)c(Cl)s1 [Example 138, 3-(5-chloro-4-(4-(methylsulfonamido)phenyl)thiazol-2-yl)-1-(3,3-diphenylpropyl)-1-(3-(methylthio)propyl)urea] | ≤ 10
4 | CS(=O)(=O)Nc1ccc(-c2nc(NC(=O)NCCC(c3ccccc3)c3ccccc3)sc2Cl)cc1 [Example 176, 1-(5-chloro-4-(4-(methylsulfonamido)phenyl)thiazol-2-yl)-3-(3,3-diphenylpropyl)urea] | ≤ 10
5 | O=C(Nc1nc2ccccc2s1)N(CCNC1CCNCC1)CCC(c1ccccc1)c1ccccc1 [Example 143, 3-(benzo[d]thiazol-2-yl)-1-(3,3-diphenylpropyl)-1-(2-(piperidin-4-ylamino)ethyl)urea] | ≤ 10
6 | O=C(CCCN(CCC(c1ccccc1)c1ccccc1)C(=O)Nc1nc2ccccc2s1)NCc1ccccc1 [Example 86, 3-(benzo[d]thiazol-2-yl)-1-(4-(benzylamino)-4-oxobutyl)-1-(3,3-diphenylpropyl)urea] | ≤ 10
7 | O=C(Nc1nc2ccccc2s1)N(CCNCC1CCN(C(=O)OCc2ccccc2)CC1)CCC(c1ccccc1)c1ccccc1 [Example 149, 4-({2-[3-Benzothiazol-2-yl-1-(3,3-diphenyl-propyl)-ureido]-ethylamino}-methyl)piperidine-1-carboxylic acid benzyl ester] | ≤ 10
8 | NS(=O)(=O)c1ccc(-c2csc(NC(=O)N(CCCC(=O)O)CCC(c3ccccc3)c3ccccc3)n2)cc1 [Example 124] | ≤ 10
9 | CC(C)(C)OC(=O)N1CCC(C(=O)NCCN(CCC(c2ccccc2)c2ccccc2)C(=O)Nc2nc3ccccc3s2)CC1 [Example 165, 4-{2-[3-Benzothiazol-2-yl-1-(3,3-diphenyl-propyl)-ureido]-ethylcarbamoyl}-piperidine-1-carboxylic acid tert-butyl ester] | ≤ 10
10 | CS(=O)(=O)Nc1ccc(-c2nc(NC(=O)N(CCCO)CCC(c3ccccc3)c3ccccc3)sc2Cl)cc1 [Example 134, 3-(5-chloro-4-(4-(methylsulfonamido)phenyl)thiazol-2-yl)-1-(3,3-diphenylpropyl)-1-(3-hydroxypropyl)urea] | ≤ 10
11 | O=C(NCc1ccccc1Cl)NCC(c1ccccc1)c1ccccc1 [Example 25, 1-(2-chloro-benzyl)-3-(2,2-diphenyl-ethyl)-urea] | ≤ 10
12 | COC(=O)c1cccc(NC(=O)NCC(c2ccccc2)c2ccccc2)c1 [Example 26, 3-[3-(2,2-diphenyl-ethyl)-ureido]-benzoic acid methyl ester] | ≤ 10
13 | COc1ccc(C(CCNC(=O)Nc2cccc(C(=O)O)c2)c2ccc(OC)cc2)cc1 [Example 54, 3-{3-[3,3-Bis-(4-methoxy-phenyl)-propyl]-ureido}-benzoic acid] | ≤ 10
14 | COC(=O)c1cc(NC(=O)NCCC(c2ccccc2)c2ccccc2)ccc1Cl [Example 38, 2-chloro-5-[3-(3,3-diphenyl-propyl)-ureido]-benzoic acid methyl ester] | ≤ 10
15 | CN(C)C(=O)CCN(CCC(c1ccccc1)c1ccccc1)C(=O)Nc1nc2ccccc2s1 [Example 107, 3-(benzo[d]thiazol-2-yl)-1-(3-(dimethylamino)-3-oxopropyl)-1-(3,3-diphenylpropyl)urea] | ≤ 10
16 | O=C(CCCN(CCC(c1ccccc1)c1ccccc1)C(=O)Nc1nc2ccccc2s1)NC1CCCCC1 [Example 97, 3-(benzo[d]thiazol-2-yl)-1-(4-(cyclohexylamino)-4-oxobutyl)-1-(3,3-diphenylpropyl)urea] | ≤ 10

Row | Compound | EC50 [µM]
17 | CC(=O)N1CCN(C(=O)CCCN(CCC(c2ccccc2)c2ccccc2)C(=O)Nc2nc(-c3ccccc3)cs2)CC1 [Example 84, 1-(4-(4-acetylpiperazin-1-yl)-4-oxobutyl)-1-(3,3-diphenylpropyl)-3-(4-phenylthiazol-2-yl)urea] | ≤ 10
18 | CS(=O)(=O)Nc1ccc(-c2csc(NC(=O)N(CCNC(=O)C3CCCNC3)CCC(c3ccccc3)c3ccccc3)n2)cc1 (centres unmarked) [Example 130, 1-(3,3-diphenylpropyl)-3-(4-(4-(methylsulfonamido)phenyl)thiazol-2-yl)-1-(2-(piperidine-3-carboxamido)ethyl)urea] | ≤ 10
19 | CS(=O)(=O)Nc1ccc(-c2nc(NC(=O)N(CCC(c3ccccc3)c3ccccc3)CCS(N)(=O)=O)sc2Cl)cc1 [Example 136, 2-[{[(5-chloro-4-{4-[(methylsulfonyl)amino]phenyl}-1,3-thiazol-2-yl)amino]carbonyl}(3,3-diphenylpropyl)amino]ethanesulfonamide] | ≤ 10
20 | N=C(NCCC(c1ccccc1)c1ccccc1)Nc1cccc(C(=O)O)c1 [compound 51, 3-[N′-(3,3-diphenyl-propyl)-guanidino]-benzoic acid, reference compound] | ≤ 10
21 | CS(=O)(=O)Nc1ccc(-c2csc(NC(=O)N(CCC(N)=O)CCC(c3ccccc3)c3ccccc3)n2)cc1 [Example 77, 1-(3-amino-3-oxopropyl)-1-(3,3-diphenylpropyl)-3-(4-(4-(methylsulfonamido)phenyl)thiazol-2-yl)urea] | ≤ 10
22 | CN(C)S(=O)(=O)NCCN(CCC(c1ccccc1)c1ccccc1)C(=O)Nc1nc2ccccc2s1 [Example 174, N,N-dimethylamino-sulfonyl-{2-[3-benzothiazol-2-yl-1-(3,3-diphenyl-propyl)-ureido]-ethyl}-amide] | ≤ 10
23 | CS(=O)(=O)c1ccc(-c2csc(NC(=O)N(CCCC(=O)O)CCC(c3ccccc3)c3ccccc3)n2)cc1 [Example 79, 4-(1-(3,3-diphenylpropyl)-3-(4-(4-(methylsulfonyl)phenyl)thiazol-2-yl)ureido)butanoic acid] | ≤ 10
24 | O=C(NCCC(c1ccccc1)c1ccccc1)Nc1ccc(Br)cc1 [Example 13, 1-(4-bromo-phenyl)-3-(3,3-diphenyl-propyl)-urea] | ≤ 10
25 | C/N=C(\NCCC(c1ccccc1)c1ccccc1)Nc1cccc(C(=O)O)c1 [compound 52, 3-[N′-(3,3-diphenyl-propyl)-N″-methyl-guanidino]-benzoic acid, reference compound] | ≤ 10
26 | O=C(CCN(CCC(c1ccccc1)c1ccccc1)C(=O)Nc1nc2ccccc2s1)NCc1ccccc1 [Example 117, 3-(benzo[d]thiazol-2-yl)-1-(3-(benzylamino)-3-oxopropyl)-1-(3,3-diphenylpropyl)urea] | ≤ 10
27 | CN(C)C(=O)CCCN(CCC(c1ccccc1)c1ccccc1)C(=O)Nc1nc2ccccc2s1 [Example 89, 3-(benzo[d]thiazol-2-yl)-1-(4-(dimethylamino)-4-oxobutyl)-1-(3,3-diphenylpropyl)urea] | ≤ 10
28 | C[C@H]1CN(C(=O)CCCN(CCC(c2ccccc2)c2ccccc2)C(=O)Nc2nc(-c3ccccc3)cs2)CCN1 [Example 90, (S)-1-(3,3-diphenylpropyl)-1-(4-(3-methylpiperazin-1-yl)-4-oxobutyl)-3-(4-phenylthiazol-2-yl)urea] | ≤ 10
29 | COC(=O)c1ccc(N)c(NC(=O)NCCC(c2ccccc2)c2ccccc2)c1 [Example 42, 4-amino-3-[3-(3,3-diphenyl-propyl)-ureido]-benzoic acid methyl ester] | ≤ 10
30 | CS(=O)(=O)Nc1ccc(-c2nc(NC(=O)N(CCN)CCC(c3ccccc3)c3ccccc3)sc2Cl)cc1 [Example 135, 1-(2-aminoethyl)-3-(5-chloro-4-(4-(methylsulfonamido)phenyl)thiazol-2-yl)-1-(3,3-diphenylpropyl)urea] | ≤ 10
31 | COC(=O)c1cccc(NC(=S)NCCC(c2ccccc2)c2ccccc2)c1 [Example 47, 3-[3-(3,3-diphenyl-propyl)-thioureido]-benzoic acid methyl ester] | ≤ 10
32 | CC(C)N1CCN(C(=O)CCCN(CCC(c2ccccc2)c2ccccc2)C(=O)Nc2nc3ccccc3s2)CC1 [Example 118, 3-(benzo[d]thiazol-2-yl)-1-(3,3-diphenylpropyl)-1-(4-(4-isopropylpiperazin-1-yl)-4-oxobutyl)urea] | ≤ 10

— US20080125424A1, “Derivatives of urea and related diamines, methods for their manufacture, and uses therefor” (priority 2006, published 2008)
